Holding throughout (type): cell-based
Assay [1] concerns the target T1, RNA polymerase II (Mus musculus) (UniProt P08775+Q8CFI7+P97760+A0A3Q4L2S8+Q80UW8+P61219+P62488+Q923G2+P60898+O08740+Q63871+P62876). Description: Inhibition of RNA polymerase II in mouse B16-F1 migrating cells assessed as fold change in Abhd17a-RNA stability at 0.1 mM measured by ChIP-seq analysis relative to control cells.
Assay [2] has as its target T1, RNA polymerase II (Mus musculus). Description: Inhibition of RNA polymerase II in mouse B16-F1 migrating cells assessed as fold change in Elob-RNA stability at 0.1 mM measured by ChIP-seq analysis relative to control cells.
For assay [3] the target is unchanged. Description: Inhibition of RNA polymerase II in mouse B16-F1 migrating cells assessed as fold change in Zfp644-RNA stability at 0.1 mM measured by ChIP-seq analysis relative to control cells.
Assay [4] shares this target. Description: Inhibition of RNA polymerase II in mouse B16-F1 migrating cells assessed as fold change in Apba3-RNA stability at 0.1 mM measured by ChIP-seq analysis relative to control cells.
Assay [5] has the same target. Description: Inhibition of RNA polymerase II in mouse B16-F1 migrating cells assessed as fold change in Bnip1-RNA stability at 0.1 mM measured by ChIP-seq analysis relative to control cells.
The target is the same in assay [6]. Description: Inhibition of RNA polymerase II in mouse B16-F1 migrating cells assessed as fold change in Ergic2-RNA stability at 0.1 mM measured by ChIP-seq analysis relative to control cells.
Assay [7] shares this target. Description: Inhibition of RNA polymerase II in mouse B16-F1 migrating cells assessed as fold change in Map3k20-RNA stability at 0.1 mM measured by ChIP-seq analysis relative to control cells.
Assay [8] has the same target. Nature of the assay: Inhibition of RNA polymerase II in mouse B16-F1 migrating cells assessed as fold change in Tmem234-RNA stability at 0.1 mM measured by ChIP-seq analysis relative to control cells.
The target is the same in assay [9]. Description: Inhibition of RNA polymerase II in mouse B16-F1 migrating cells assessed as fold change in Ube2m-RNA stability at 0.1 mM measured by ChIP-seq analysis relative to control cells.
For assay [10] the target is unchanged. Nature of the assay: Inhibition of RNA polymerase II in mouse B16-F1 migrating cells assessed as fold change in Wdr82-RNA stability at 0.1 mM measured by ChIP-seq analysis relative to control cells.
The target is the same in assay [11]. Nature of the assay: Inhibition of RNA polymerase II in mouse B16-F1 migrating cells assessed as fold change in Tcf20-RNA stability at 0.1 mM measured by ChIP-seq analysis relative to control cells.
Assay [12] shares this target. Description: Inhibition of RNA polymerase II in mouse B16-F1 migrating cells assessed as fold change in Hsp90aa1-RNA stability at 0.1 mM measured by ChIP-seq analysis relative to control cells.
For assay [13] the target is unchanged. Description: Inhibition of RNA polymerase II in mouse B16-F1 migrating cells assessed as fold change in Prr11-RNA stability at 0.1 mM measured by ChIP-seq analysis relative to control cells.
Assay [14] has the same target. Nature of the assay: Inhibition of RNA polymerase II in mouse B16-F1 migrating cells assessed as fold change in Srp54b-RNA stability at 0.1 mM measured by ChIP-seq analysis relative to control cells.
Assay [15] shares this target. Nature of the assay: Inhibition of RNA polymerase II in mouse B16-F1 migrating cells assessed as fold change in Pum2-RNA stability at 0.1 mM measured by ChIP-seq analysis relative to control cells.
The target is the same in assay [16]. Description: Inhibition of RNA polymerase II in mouse B16-F1 migrating cells assessed as fold change in Trim71-RNA stability at 0.1 mM measured by ChIP-seq analysis relative to control cells.
The target is the same in assay [17]. Description: Inhibition of RNA polymerase II in mouse B16-F1 migrating cells assessed as fold change in P4hb-RNA stability at 0.1 mM measured by ChIP-seq analysis relative to control cells.
Assay [18] shares this target. Description: Inhibition of RNA polymerase II in mouse B16-F1 migrating cells assessed as fold change in Hyls1-RNA stability at 0.1 mM measured by ChIP-seq analysis relative to control cells.
Assay [19] shares this target. Nature of the assay: Inhibition of RNA polymerase II in mouse B16-F1 migrating cells assessed as fold change in Ero1l-RNA stability at 0.1 mM measured by ChIP-seq analysis relative to control cells.
Assay [20] concerns the target Histone-lysine N-methyltransferase EZH2 (Mus musculus) (UniProt Q61188). Description: Inhibition of EZH2 in mouse B16-F1 migrating cells assessed as fold change in H3K27me3-dependent regulated Nov-mRNA expression at 3 uM measured by ChIP-seq analysis relative to control cells.
Assay [21] has the same target. Nature of the assay: Inhibition of EZH2 in mouse B16-F1 migrating cells assessed as fold change in H3K27me3-buffered regulated Prokr1-mRNA expression at 3 uM measured by ChIP-seq analysis relative to control cells.
The target is the same in assay [22]. Description: Inhibition of EZH2 in mouse B16-F1 migrating cells assessed as fold change in H3K27me3-buffered regulated Stard13-mRNA expression at 3 uM measured by ChIP-seq analysis relative to control cells.
The target is the same in assay [23]. Description: Inhibition of EZH2 in mouse B16-F1 migrating cells assessed as fold change in H3K27me3-buffered regulated Mbnl1-mRNA expression at 3 uM measured by ChIP-seq analysis relative to control cells.
Assay [24] has the same target. Nature of the assay: Inhibition of EZH2 in mouse B16-F1 migrating cells assessed as fold change in H3K27me3-buffered regulated Gm23130-mRNA expression at 3 uM measured by ChIP-seq analysis relative to control cells.
Assay [25] shares this target. Description: Inhibition of EZH2 in mouse B16-F1 migrating cells assessed as fold change in H3K27me3-buffered regulated Dse-mRNA expression at 3 uM measured by ChIP-seq analysis relative to control cells.
Assay [26] has the same target. Description: Inhibition of EZH2 in mouse B16-F1 migrating cells assessed as fold change in H3K27me3-buffered regulated Phf13-mRNA expression at 3 uM measured by ChIP-seq analysis relative to control cells.
Assay [27] shares this target. Nature of the assay: Inhibition of EZH2 in mouse B16-F1 migrating cells assessed as fold change in H3K27me3-independent regulated Cyr61-mRNA expression at 3 uM measured by ChIP-seq analysis relative to control cells.
Assay [28] has the same target. Description: Inhibition of EZH2 in mouse B16-F1 migrating cells assessed as fold change in H3K27me3-buffered regulated Nfkb1-mRNA expression at 3 uM measured by ChIP-seq analysis relative to control cells.
The target is the same in assay [29]. Nature of the assay: Inhibition of EZH2 in mouse B16-F1 migrating cells assessed as fold change in H3K27me3-buffered regulated Fam212a-mRNA expression at 3 uM measured by ChIP-seq analysis relative to control cells.
The target is the same in assay [30]. Nature of the assay: Inhibition of EZH2 in mouse B16-F1 migrating cells assessed as fold change in H3K27me3-independent regulated Loxl2-mRNA expression at 3 uM measured by ChIP-seq analysis relative to control cells.

Protein sequences, listed by entry. Tags and fused reporters are not part of them.
UniProt Q61188, whole entry: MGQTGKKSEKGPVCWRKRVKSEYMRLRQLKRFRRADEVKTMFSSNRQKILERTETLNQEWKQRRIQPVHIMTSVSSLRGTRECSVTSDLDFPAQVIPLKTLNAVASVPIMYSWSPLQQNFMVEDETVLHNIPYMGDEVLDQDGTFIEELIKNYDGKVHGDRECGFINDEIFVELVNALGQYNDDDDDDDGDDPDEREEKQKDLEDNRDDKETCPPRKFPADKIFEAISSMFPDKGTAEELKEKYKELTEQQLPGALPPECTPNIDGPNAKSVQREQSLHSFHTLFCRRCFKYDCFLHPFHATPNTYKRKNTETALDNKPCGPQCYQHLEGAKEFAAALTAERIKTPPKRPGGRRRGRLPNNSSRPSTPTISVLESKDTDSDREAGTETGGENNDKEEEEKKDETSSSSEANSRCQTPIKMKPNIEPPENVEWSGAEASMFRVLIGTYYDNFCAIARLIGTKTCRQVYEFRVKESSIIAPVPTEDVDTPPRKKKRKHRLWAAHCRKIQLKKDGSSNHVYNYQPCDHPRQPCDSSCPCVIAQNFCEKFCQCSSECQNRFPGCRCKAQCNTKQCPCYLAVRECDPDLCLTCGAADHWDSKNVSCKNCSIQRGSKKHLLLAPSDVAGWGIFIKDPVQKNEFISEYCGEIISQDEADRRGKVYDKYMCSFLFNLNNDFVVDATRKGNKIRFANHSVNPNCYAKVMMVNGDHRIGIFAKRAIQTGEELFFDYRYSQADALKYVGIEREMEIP

Molecules are shown by their SMILES. The source gives many values for each of these; only a part stands here.

Turning to `OC[C@H]1O[C@@H](n2cnc3cc(Cl)c(Cl)cc32)[C@H](O)[C@@H]1O`, the log2FC in [1] was 0.6; in assay [2] it was 0.56; in [3], -0.59; in assay [4], 0.47; in assay [5], 0.51; in [6], -0.5. Also, the log2FC in [7] was -0.47; in [8] it was 0.41; in assay [9], 0.42; in [10], -0.72; in assay [11], -0.44; in assay [12] it was -0.64. For the same compound, the log2FC in [13] is -0.49; in assay [14], -0.47; in assay [15], -0.54; in assay [16], -0.61; in assay [17], 0.44; in assay [18] it was -0.91. Further, in [19], the log2FC came out at 0.61.
Turning to `CCCc1cc(C)[nH]c(=O)c1CNC(=O)c1cc(-c2ccnc(N3CCN(C)CC3)c2)cc2c1cnn2C(C)C`, the log2FC in assay [20] is 0.48; in assay [21], -0.64; in assay [22], -0.38; in assay [23], -0.41; in assay [24], -1.5; in assay [25] it was -0.57. Further, the log2FC in assay [26] was -0.48; in assay [27], 0.38; in [28], -0.38; in assay [29], -0.74; in assay [30], 0.65.

These data come from ChEMBL document CHEMBL5674883, “The Heterochromatin Landscape in Migrating Cells and the Importance of H3K27me3 for Associated Transcriptome Alterations” (Cells, 2018).
